# Laboratory results taken from the supplement of paper PMC7238544.
# Structures can show the parent of a compound that is named as a salt. ± gives the standard deviation of the averaged measurements. Some of the results follow. The data scatter; read single values as rough.
# Tests used:
# hAMSC donor 1 [1] = assay: Hoechst total cell count ratio vs vehicle control; higher = more cells (less toxicity)
# hAMSC donor 2 [2] = assay: as above
# hAMSC donor 1 [3] = assay: transgenic luciferase activity (RLU/mg protein) fold change vs vehicle control (ratio); higher = more transgene expression
# hAMSC donor 2 [4] = assay: as above
# hAMSC donor 1 [5] = assay: transfection efficiency (EGFP+ cells / Hoechst count) fold change vs vehicle control (ratio); hAMSC are human adipose-derived mesenchymal stem cells given an EGFP-luciferase plasmid by lipofection; higher = enhanced transfection
# hAMSC donor 2 [6] = assay: as above
# [7] = priming compound concentration 0.2 µM
# [8] = priming compound concentration 1.7 µM
# [9] = priming compound concentration 13 µM
Compound,Hoechst total cell count ratio (hAMSC donor 1 [1]; [7]),Hoechst total cell count ratio (hAMSC donor 1 [1]; [8]),Hoechst total cell count ratio (hAMSC donor 1 [1]; [9]),Hoechst total cell count ratio (hAMSC donor 2 [2]; [7]),Hoechst total cell count ratio (hAMSC donor 2 [2]; [8]),Hoechst total cell count ratio (hAMSC donor 2 [2]; [9]),transgenic luciferase activity (hAMSC donor 1 [3]; [8]),transgenic luciferase activity (hAMSC donor 1 [3]; [9]),transgenic luciferase activity (hAMSC donor 2 [4]; [7]),transgenic luciferase activity (hAMSC donor 2 [4]; [8]),transgenic luciferase activity (hAMSC donor 2 [4]; [9]),transfection efficiency (hAMSC donor 1 [5]; [7]),transfection efficiency (hAMSC donor 1 [5]; [8]),transfection efficiency (hAMSC donor 1 [5]; [9]),transfection efficiency (hAMSC donor 2 [6]; [7]),transfection efficiency (hAMSC donor 2 [6]; [8]),transfection efficiency (hAMSC donor 2 [6]; [9]),transgenic luciferase activity (hAMSC donor 1 [3]; [7])
O=C(O)c1cc(=O)c2c(OCC(O)COc3cccc4oc(C(=O)O)cc(=O)c34)cccc2o1 [Cromolyn sodium],1 ± 0.078,1.25 ± 0.023,1.32 ± 0.036,1.28 ± 0.16,1.17 ± 0.18,1.23 ± 0.2,0.385 ± 0.13,0.777 ± 0.064,1.03 ± 0.1,0.527 ± 0.063,0.503 ± 0.21,0.906 ± 0.23,1.64 ± 0.31,0.727 ± 0.077,0.989 ± 0.29,1.01 ± 0.033,0.885 ± 0.094,–
O=C1C(CC[S+]([O-])c2ccccc2)C(=O)N(c2ccccc2)N1c1ccccc1 (stereo not given) [Sulfinpyrazone],1.1 ± 0.013,1.24 ± 0.11,1.4 ± 0.057,1.05 ± 0.21,1.07 ± 0.093,1.22 ± 0.26,1.44 ± 0.56,–,0.817 ± 0.091,1.15 ± 0.14,0.604 ± 0.058,1.2 ± 0.2,1.67 ± 0.17,0.855 ± 0.17,1.03 ± 0.17,1.14 ± 0.21,0.977 ± 0.13,0.749 ± 0.24
O=C1Cc2cc(CCN3CCN(c4nsc5ccccc45)CC3)c(Cl)cc2N1 [Ziprasidone],1.32 ± 0.096,1.21 ± 0.11,1.51 ± 0.31,1.17 ± 0.16,1.14 ± 0.11,1.4 ± 0.18,0.296 ± 0.042,0.792 ± 0.26,1.14 ± 0.51,0.788 ± 0.069,0.562 ± 0.19,1.15 ± 0.28,0.924 ± 0.32,0.744 ± 0.19,1.1 ± 0.12,1.06 ± 0.1,0.478 ± 0.056,–
O=C(O)c1cc(-c2ccc(F)cc2F)ccc1O [Diflunisal],1.26 ± 0.081,1.06 ± 0.064,1.47 ± 0.13,1.14 ± 0.067,1.22 ± 0.073,1.45 ± 0.078,1.12 ± 0.44,0.471 ± 0.14,0.753 ± 0.077,0.504 ± 0.0086,0.494 ± 0.1,0.937 ± 0.22,1.24 ± 0.13,0.77 ± 0.29,0.936 ± 0.035,0.952 ± 0.29,0.84 ± 0.11,–
O=C(O)c1cccnc1 [Nicotinic acid],1.17 ± 0.047,1.06 ± 0.15,1.45 ± 0.068,1.16 ± 0.24,1.23 ± 0.26,1.42 ± 0.072,1.03 ± 0.37,–,0.742 ± 0.15,0.887 ± 0.13,0.539 ± 0.098,1.26 ± 0.092,1.85 ± 0.081,0.977 ± 0.29,0.921 ± 0.17,1.08 ± 0.25,0.942 ± 0.26,0.761 ± 0.38
CCCC1O[C@@H]2C[C@H]3[C@@H]4CCC5=CC(=O)C=C[C@]5(C)[C@H]4[C@@H](O)C[C@]3(C)[C@]2(C(=O)CO)O1 (stereo not given in full) [Budesonide],1.36 ± 0.16,1.33 ± 0.075,1.2 ± 0.18,0.865 ± 0.074,0.905 ± 0.047,1.33 ± 0.058,25.5 ± 3.8,–,3.02 ± 1.1,2.4 ± 0.94,3.93 ± 0.44,1.36 ± 0.052,1.44 ± 0.29,1.04 ± 0.22,2.62 ± 0.35,3.27 ± 0.023,2.1 ± 0.46,7.13 ± 0.98
CN(C)CCOc1ccc(/C(=C(/CCCl)c2ccccc2)c2ccccc2)cc1 [Toremifene citrate],1.11 ± 0.085,1.23 ± 0.18,1.34 ± 0.043,1.1 ± 0.16,0.989 ± 0.14,1.31 ± 0.073,0.256 ± 0.033,0.522 ± 0.16,1.24 ± 0.17,0.573 ± 0.15,0.485 ± 0.032,0.897 ± 0.013,1.17 ± 0.17,0.789 ± 0.19,1.05 ± 0.12,1.2 ± 0.22,0.742 ± 0.11,–
CO/N=C(\C(=O)N[C@@H]1C(=O)N2C(C(=O)O)=C(COC(N)=O)CS[C@H]12)c1ccco1 [Cefuroxime],1.06 ± 0.093,1.3 ± 0.19,1.23 ± 0.077,1.38 ± 0.072,1.14 ± 0.033,1.39 ± 0.03,0.299 ± 0.019,1.23 ± 0.31,0.93 ± 0.13,1.04 ± 0.028,0.434 ± 0.08,0.597 ± 0.099,0.751 ± 0.38,0.707 ± 0.2,0.987 ± 0.034,1.13 ± 0.24,0.837 ± 0.067,–
O=C1c2c(O)ccc(O)c2C(=O)c2c(NCCNCCO)ccc(NCCNCCO)c21 [Mitoxantrone hydrochloride],0.921 ± 0.033,0.476 ± 0.013,0.16 ± 0.064,0.43 ± 0.007,0.275 ± 0.043,0.053 ± 0.0076,3.89 ± 1.6,–,2.13 ± 0.8,0.743 ± 0.37,0.000366 ± 2.3e-05,1.36 ± 0.33,1.3 ± 0.21,0.168 ± 0.13,2.51 ± 0.23,2.71 ± 0.19,0.111 ± 0.19,0.89 ± 0.21
C#C[C@]1(O)CC[C@H]2[C@@H]3CCC4=CC(=O)CC[C@@H]4[C@H]3CC[C@@]21CC [Levonorgestrel],0.998 ± 0.08,1.04 ± 0.034,1.23 ± 0.07,0.99 ± 0.19,1.03 ± 0.031,1.16 ± 0.096,0.692 ± 0.11,–,1.05 ± 0.12,0.874 ± 0.086,0.744 ± 0.19,1.34 ± 0.44,1.17 ± 0.19,0.802 ± 0.23,1.23 ± 0.34,1.14 ± 0.12,1.25 ± 0.5,0.681 ± 0.27
